Experimental data: publication PMC5838168, “Effect of human very low-density lipoproteins on cardiotrophin-like cytokine factor 1 (CLCF1) activity” (Scientific Reports, 2018)
Results are given in words; binding and its absence hold for the method and conditions named. For some of these results: In cells and extracts the contact can be indirect. Some entries that bind do so weakly or less than the wild type.

Protein sequences, listed by entry. Tags and fused reporters are not part of them. Lines headed by an entry give the natural chain unless they say otherwise; changes in a name come on top. Residues count along the entry.
UniProt P02649, residues 19-317: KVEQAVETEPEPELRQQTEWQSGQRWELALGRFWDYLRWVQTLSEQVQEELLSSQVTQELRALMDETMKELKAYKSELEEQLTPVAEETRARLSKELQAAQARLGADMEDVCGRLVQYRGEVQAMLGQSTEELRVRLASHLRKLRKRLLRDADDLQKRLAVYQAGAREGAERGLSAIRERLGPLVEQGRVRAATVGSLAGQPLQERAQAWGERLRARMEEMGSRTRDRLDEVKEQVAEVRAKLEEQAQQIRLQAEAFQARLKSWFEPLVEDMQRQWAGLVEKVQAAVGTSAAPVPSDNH
UniProt O88507: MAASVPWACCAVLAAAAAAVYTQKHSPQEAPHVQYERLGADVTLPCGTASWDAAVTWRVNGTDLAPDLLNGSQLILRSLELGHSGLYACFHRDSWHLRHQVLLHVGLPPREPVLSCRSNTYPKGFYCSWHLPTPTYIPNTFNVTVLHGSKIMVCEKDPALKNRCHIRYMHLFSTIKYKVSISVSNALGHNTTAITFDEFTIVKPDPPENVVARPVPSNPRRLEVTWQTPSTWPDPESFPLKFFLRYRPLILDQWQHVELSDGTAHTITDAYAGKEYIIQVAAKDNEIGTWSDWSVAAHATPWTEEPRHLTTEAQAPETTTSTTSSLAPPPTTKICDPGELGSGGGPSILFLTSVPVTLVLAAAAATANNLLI
UniProt Q00560: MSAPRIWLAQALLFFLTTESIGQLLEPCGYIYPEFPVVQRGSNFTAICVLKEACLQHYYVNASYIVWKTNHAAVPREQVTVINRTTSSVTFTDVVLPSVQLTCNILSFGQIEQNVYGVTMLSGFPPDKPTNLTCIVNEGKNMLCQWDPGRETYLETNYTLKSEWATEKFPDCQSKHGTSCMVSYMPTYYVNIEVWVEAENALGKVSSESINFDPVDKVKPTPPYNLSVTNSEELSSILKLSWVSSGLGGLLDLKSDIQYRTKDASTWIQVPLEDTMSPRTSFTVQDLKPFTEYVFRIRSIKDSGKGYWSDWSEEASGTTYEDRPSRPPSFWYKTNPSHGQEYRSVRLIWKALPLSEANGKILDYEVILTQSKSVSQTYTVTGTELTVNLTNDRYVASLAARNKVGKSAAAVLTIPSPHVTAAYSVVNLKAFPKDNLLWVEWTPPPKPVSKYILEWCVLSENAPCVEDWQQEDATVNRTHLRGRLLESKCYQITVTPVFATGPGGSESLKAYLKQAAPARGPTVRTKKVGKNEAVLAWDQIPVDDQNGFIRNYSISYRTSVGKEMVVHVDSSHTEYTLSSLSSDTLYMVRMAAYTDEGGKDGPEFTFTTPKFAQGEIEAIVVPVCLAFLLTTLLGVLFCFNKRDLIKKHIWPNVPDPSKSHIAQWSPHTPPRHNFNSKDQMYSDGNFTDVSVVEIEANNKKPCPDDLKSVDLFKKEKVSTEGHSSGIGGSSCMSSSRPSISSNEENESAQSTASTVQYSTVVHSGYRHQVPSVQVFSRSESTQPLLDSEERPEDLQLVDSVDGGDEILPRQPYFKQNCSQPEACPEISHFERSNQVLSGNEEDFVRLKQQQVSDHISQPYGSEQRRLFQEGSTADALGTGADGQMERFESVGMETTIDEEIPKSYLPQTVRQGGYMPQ
UniProt P42703: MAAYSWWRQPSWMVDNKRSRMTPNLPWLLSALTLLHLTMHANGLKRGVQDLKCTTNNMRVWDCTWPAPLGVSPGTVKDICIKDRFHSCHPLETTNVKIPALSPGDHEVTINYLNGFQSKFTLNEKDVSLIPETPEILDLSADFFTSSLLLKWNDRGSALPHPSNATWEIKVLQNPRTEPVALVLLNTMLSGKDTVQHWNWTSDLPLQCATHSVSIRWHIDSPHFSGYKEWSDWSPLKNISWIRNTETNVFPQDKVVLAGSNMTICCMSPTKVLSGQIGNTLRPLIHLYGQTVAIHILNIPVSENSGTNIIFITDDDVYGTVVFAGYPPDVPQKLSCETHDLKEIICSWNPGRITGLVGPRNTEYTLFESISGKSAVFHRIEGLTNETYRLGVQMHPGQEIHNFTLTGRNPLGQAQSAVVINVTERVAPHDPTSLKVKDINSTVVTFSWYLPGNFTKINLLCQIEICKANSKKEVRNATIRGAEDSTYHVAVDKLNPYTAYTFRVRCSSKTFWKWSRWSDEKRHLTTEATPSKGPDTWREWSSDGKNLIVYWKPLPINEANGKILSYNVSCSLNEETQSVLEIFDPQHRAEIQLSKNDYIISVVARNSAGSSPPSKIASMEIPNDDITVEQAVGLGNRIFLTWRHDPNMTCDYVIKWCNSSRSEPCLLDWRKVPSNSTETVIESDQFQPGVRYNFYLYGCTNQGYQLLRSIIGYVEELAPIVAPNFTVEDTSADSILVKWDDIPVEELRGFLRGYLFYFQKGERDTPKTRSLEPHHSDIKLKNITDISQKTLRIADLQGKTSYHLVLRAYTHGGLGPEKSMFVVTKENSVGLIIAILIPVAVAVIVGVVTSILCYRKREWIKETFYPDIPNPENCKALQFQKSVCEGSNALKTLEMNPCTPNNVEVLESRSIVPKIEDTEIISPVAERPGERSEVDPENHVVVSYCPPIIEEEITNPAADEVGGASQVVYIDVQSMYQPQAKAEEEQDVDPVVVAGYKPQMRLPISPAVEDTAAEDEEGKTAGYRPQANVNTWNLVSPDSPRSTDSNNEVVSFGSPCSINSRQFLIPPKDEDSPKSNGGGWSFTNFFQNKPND

How the values were obtained:
[1] = target: human serum ApoE3 (human (endogenous in serum)) (UniProt P02649); test: co-IP; mouse or human serum diluted 1:20 in PBS, mixed with biotinylated CLCF1 of the same species and anti-ApoE IgG, 16 h at 4 °C; anti-Ig beads; CLCF1 detected with HRP-streptavidin; only the binder purified
[2] = target: human serum ApoE3 (human (endogenous in serum)) (UniProt P02649); test: SEC; 50 ul human, WT mouse or ApoE−/− mouse serum mixed with 1 ug biotinylated human or mouse CLCF1; FPLC on Superose 6 HR 10/30, 40 fractions analysed by Western blot for ApoE and with HRP-streptavidin for CLCF1; only the binder purified
[3] = target: CNTFR on 3T3-L1 mouse pre-adipocytes (mouse (endogenous in 3T3-L1)) (UniProt O88507+Q00560+P42703); test: flow cytometry on cells; cells 1 h on ice in PBS 0.1% BSA with species-matched biotinylated CLCF1 (1 ug/ml) alone or with ApoE or HDL, LDL, VLDL (100 ug/ml); PE-streptavidin; only the binder purified
[4] = target: tripartite CNTFR (CNTFRα, gp130 and LIFRβ) on Ba/F3 transfectants (not stated (human or mouse cDNA cloned)) (UniProt O88507+Q00560+P42703); test: as above
[5] = target: T1, mouse serum ApoE (mouse (endogenous in serum)) (UniProt P08226); test: co-IP; mouse or human serum diluted 1:20 in PBS, mixed with biotinylated CLCF1 of the same species and anti-ApoE IgG, 16 h at 4 °C; anti-Ig beads; CLCF1 detected with HRP-streptavidin; only the binder purified
T1 sequence: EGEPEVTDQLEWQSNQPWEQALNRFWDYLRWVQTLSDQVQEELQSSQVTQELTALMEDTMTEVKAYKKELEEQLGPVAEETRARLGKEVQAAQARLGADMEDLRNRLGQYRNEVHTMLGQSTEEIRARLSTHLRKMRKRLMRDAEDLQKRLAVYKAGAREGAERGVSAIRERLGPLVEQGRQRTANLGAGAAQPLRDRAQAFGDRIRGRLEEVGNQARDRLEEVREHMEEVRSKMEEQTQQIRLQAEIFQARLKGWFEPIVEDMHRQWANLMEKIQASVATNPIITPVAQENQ

[6] = target: T1, mouse serum ApoE (mouse (endogenous in serum)); test: SEC; 50 ul human, WT mouse or ApoE−/− mouse serum mixed with 1 ug biotinylated human or mouse CLCF1; FPLC on Superose 6 HR 10/30, 40 fractions analysed by Western blot for ApoE and with HRP-streptavidin for CLCF1; only the binder purified
[7] = target: ApoE3 secreted by Flp-In HEK-293 transfectants (human) (UniProt P02649); test: co-IP; 20x concentrated serum-free culture medium of Flp-In HEK-293 stable transfectants co-expressing CLCF1, CRLF1 and ApoE2, 3 or 4; rat anti-ApoE mAb and anti-rat Ig agarose; glycine pH 2.5 eluates analysed by Western blot

B1: biotinylated human CLCF1 (cardiotrophin-like cytokine factor 1) (ligand, UniProt Q9UBD9 28-225, looked up)
chain: LNRTGDPGPGPSIQKTYDLTRYLEHQLRSLAGTYLNYLGPPFNEPDFNPPRLGAETLPRATVDLEVWRSLNDKLRLTQNYEAYSHLLCYLRGLNRQAATAELRRSLAHFCTSLQGLLGSIAGVMAALGYPLPQPLPGTEPTWTPGPAHSDFLQKMDDFWLLKELQTWLWRSAKDFNRLKKKMQPPAAAVTLHLGAHGF
modifications: biotin on the Avitag (BirA biotin-ligase)
notes: Cardiotrophin-like cytokine factor 1 (CLCF1), human, mature protein, codon optimized synthetic cDNA in pET24d; also called biotinylated hCLCF1; hCLC biot
[1]
  binding: binds
[2]
  binding: binds

B2: biotinylated mouse CLCF1 (ligand, UniProt Q9QZM3 28-225)
chain: LNRTGDPGPGPSIQKTYDLTRYLEHQLRSLAGTYLNYLGPPFNEPDFNPPRLGAETLPRATVNLEVWRSLNDRLRLTQNYEAYSHLLCYLRGLNRQAATAELRRSLAHFCTSLQGLLGSIAGVMATLGYPLPQPLPGTEPAWAPGPAHSDFLQKMDDFWLLKELQTWLWRSAKDFNRLKKKMQPPAASVTLHLEAHGF
modifications: biotin on the Avitag (BirA biotin-ligase)
[3]
  binding: binds
[4]
  binding: binds
[5]
  binding: binds
[6]
  binding: binds

B3: human CLCF1 secreted by Flp-In HEK-293 transfectants (co-expressed with CRLF1) (ligand, UniProt Q9UBD9 28-225)
chain: LNRTGDPGPGPSIQKTYDLTRYLEHQLRSLAGTYLNYLGPPFNEPDFNPPRLGAETLPRATVDLEVWRSLNDKLRLTQNYEAYSHLLCYLRGLNRQAATAELRRSLAHFCTSLQGLLGSIAGVMAALGYPLPQPLPGTEPTWTPGPAHSDFLQKMDDFWLLKELQTWLWRSAKDFNRLKKKMQPPAAAVTLHLGAHGF
[7]
  binding: binds
